In paper PMC7005279, “Cryo-EM study of an archaeal 30S initiation complex gives insights into evolution of translation initiation” (Communications Biology, 2020):
These are yes or no findings as the source states them, for the method shown. A result given as binding can be weak or reduced; the word gives no strength.

Biological target: ribosomal protein eL41 of Pyrococcus abyssi, found in the 30S subunit (P. abyssi)
Test: cryo-EM structure; IC2 complex (Pa-30S:mRNA:aIF1A:aIF2:GDPNP:Met-tRNAi) purified on TALON by N-terminally tagged aIF2β and aIF2α; overall 3.2 Å, classes IC2A 4.2 Å and IC2B 3.3 Å; aIF1A and aIF2 placed by rigid body fitting; both purified

B1: gamma subunit of translation initiation factor aIF2 from Pyrococcus abyssi (protein, UniProt Q9V1G0 1-411)
chain: MGEKRKSRQAEVNIGMVGHVDHGKTTLTKALTGVWTDTHSEELRRGITIKIGFADAEIRRCPNCGRYSTSPVCPYCGHETEFVRRVSFIDAPGHEALMTTMLAGASLMDGAILVIAANEPCPRPQTREHLMALQIIGQKNIIIAQNKIELVDKEKALENYRQIKEFIEGTVAENAPIIPISALHGANIDVLVKAIEDFIPTPKRDPNKPPKMLVLRSFDVNKPGTPPEKLVGGVLGGSIVQGKLKVGDEIEIRPGVPYEEHGRIKYEPITTEIVSLQAGGQFVEEAYPGGLVGVGTKLDPYLTKGDLMAGNVVGKPGKLPPVWDSLRLEVHLLERVVGTEQELKVEPIKRKEVLLLNVGTARTMGLVTGLGKDEIEVKLQIPVCAEPGDRVAISRQIGSRWRLIGYGIIKE
With B1 the binding was “binds”.
